For experiment [1], the target named is T1, RAD21-LAP (mouse (BAC transgene in mouse R1/E ESC)) (UniProt Q61550).
T1 sequence: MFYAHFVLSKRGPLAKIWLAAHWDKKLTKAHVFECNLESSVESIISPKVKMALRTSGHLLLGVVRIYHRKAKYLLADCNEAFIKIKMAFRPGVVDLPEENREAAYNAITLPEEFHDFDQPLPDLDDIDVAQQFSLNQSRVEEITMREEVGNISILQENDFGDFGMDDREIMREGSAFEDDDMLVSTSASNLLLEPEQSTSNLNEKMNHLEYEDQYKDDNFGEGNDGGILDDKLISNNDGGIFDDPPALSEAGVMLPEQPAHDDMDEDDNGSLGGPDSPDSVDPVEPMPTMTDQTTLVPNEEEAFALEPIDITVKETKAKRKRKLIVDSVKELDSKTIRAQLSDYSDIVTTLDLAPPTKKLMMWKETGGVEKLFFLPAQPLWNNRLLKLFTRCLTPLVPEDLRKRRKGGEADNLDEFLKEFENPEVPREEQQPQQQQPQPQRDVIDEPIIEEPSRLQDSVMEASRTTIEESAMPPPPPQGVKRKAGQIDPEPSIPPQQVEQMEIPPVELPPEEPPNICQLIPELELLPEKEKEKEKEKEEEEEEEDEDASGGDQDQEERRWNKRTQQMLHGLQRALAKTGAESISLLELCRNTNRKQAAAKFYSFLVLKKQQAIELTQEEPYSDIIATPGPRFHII
As to the kind of experiment: co-IP; RAD21-LAP immunoprecipitation from RAD21 BAC-GFP ESC with a GFP antibody; Western blot. A general note: Immunoblotting shows a protein as a band on a membrane.

For experiment [2], the target named is T2, Nanog-LAP (mouse (BAC transgene in mouse R1/E ESC)) (UniProt Q80Z64).
T2 sequence: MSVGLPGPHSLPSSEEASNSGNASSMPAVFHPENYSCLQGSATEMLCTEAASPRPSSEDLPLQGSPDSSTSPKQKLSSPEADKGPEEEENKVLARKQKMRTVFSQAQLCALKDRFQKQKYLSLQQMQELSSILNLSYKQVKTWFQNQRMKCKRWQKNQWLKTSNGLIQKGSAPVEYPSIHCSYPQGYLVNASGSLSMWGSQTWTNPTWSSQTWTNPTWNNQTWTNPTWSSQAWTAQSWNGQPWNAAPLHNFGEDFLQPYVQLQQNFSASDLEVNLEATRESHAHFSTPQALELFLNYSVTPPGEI
Briefly: co-IP; nuclear extracts of Nanog-LAP ESC or wildtype ESC precipitated with a GFP antibody, IgG isotype control; Western blot with GFP and STAG1 antibodies.

Consider two molecules from paper PMC3093395.

These are yes or no findings as the source states them, for the method shown. In cells and extracts the contact can be indirect. Some entries that bind do so weakly or less than the wild type. For some assays here: Where a sequence is shown, tags or fusion partners need not be part of it.

B1: SMC1a (protein, UniProt Q9CU62 1-1233)
chain: MGFLKLIEIENFKSYKGRQIIGPFQRFTAIIGPNGSGKSNLMDAISFVLGEKTSNLRVKTLRDLIHGAPVGKPAANRAFVSMVYSEEGAEDRTFARVIVGGSSEYKINNKVVQLHEYSEELEKLGILIKARNFLVFQGAVESIAMKNPKERTALFEEISRSGELAQEYDKRKKEMVKAEEDTQFNYHRKKNIAAERKEAKQEKEEADRYQRLKDEVVRAQVQLQLFKLYHNEVEIEKLNKELASKNKEIEKDKKRMDKVEDELKEKKKELGKMMREQQQIEKEIKEKDSELNQKRPQYIKAKENTSHKIKKLEAAKKSLQNAQKHYKKRKGDMDELEKEMLSVEKARQEFEERMEEESQSQGRDLTLEENQVKKYHRLKEEASKRAATLAQELEKFNRDQKADQDRLDLEERKKVETEAKIKQKLREIEENQKRIEKLEEYITTSKQSLEEQKKLEGELTEEVEMAKRRIDEINKELNQVMEQLGDARIDRQESSRQQRKAEIMESIKRLYPGSVYGRLIDLCQPTQKKYQIAVTKVLGKNMDAIIVDSEKTGRDCIQYIKEQRGEPETFLPLDYLEVKPTDEKLRELKGAKLVIDVIRYEPPHIKKALQYACGNALVCDNVEDARRIAFGGHQRHKTVALDGTLFQKSGVISGGASDLKAKARRWDEKAVDKLKEKKERLTEELKEQMKAKRKEAELRQVQSQAHGLQMRLKYSQSDLEQTKTRHLALNLQEKSKLESELANFGPRINDIKRIIQSREREMKDLKEKMNQVEDEVFEEFCREIGVRNIREFEEEKVKRQNEIAKKRLEFENQKTRLGIQLDFEKNQLKEDQDKVHMWEQTVKKDENEIEKLKKEEQRHMKIIDETMAQLQDLKNQHLAKKSEVNDKNHEMEEIRKKLGGANKEMTHLQKEVTAIETKLEQKRSDRHNLLQACKMQDIKLPLSKGTMDDISQEEGSSQGEESVSGSQRTSSIYAREALIEIDYGDLCEDLKDAQAEEEIKQEMNTLQQKLNEQQSVLQRIAAPNMKAMEKLESVRDKFQETSDEFEAARKRAKKAKQAFEQIKKERFDRFNACFESVATNIDEIYKALSRNSSAQAFLGPENPEEPYLDGINYNCVAPGKRFRPMDNLSGGEKTVAALALLFAIHSYKPAPFFVLDEIDAALDNTNIGKVANYIKEQSTCNFQAIVISLKEEFYTKAESLIGVYPEQGDCVISKVLTFDLTKYPDANPNPNEQ
On to B1, for which the binding entry in experiment [1] is given as “binds”.

B2: STAG1 (protein, UniProt Q9D3E6 1-1258)
chain: MITSELPVLQDSTNETTAHSDAGSELEETEVKGKRKRGRPGRPPSTNKKPRKSPGEKSRIEAGIRGAGRGRANGHPQQNGDGDPVTLFEVVKLGKSAMQSVVDDWIELYKQDRDIALLDLINFFIQCSGCRGTVRIEMFRNMQNAEIIRKMTEEFDEDSGDYPLTMPGPQWKKFRSNFCEFIGVLIRQCQYSIIYDEYMMDTVISLLTGLSDSQVRAFRHTSTLAAMKLMTALVNVALNLSIHQDNTQRQYEAERNKMIGKRANERLELLLQKRKELQENQDEIENMMNSIFKGIFVHRYRDAIAEIRAICIEEIGVWMKMYSDAFLNDSYLKYVGWTLHDRQGEVRLKCLKALQSLYTNRELFPKLELFTNRFKDRIVSMTLDKEYDVAVEAIRLVTLILHGSEEALSNEDCENVYHLVYSAHRPVAVAAGEFLHKKLFSRHDPQAEEALAKRRGRNSPNGNLIRMLVLFFLESELHEHAAYLVDSLWESSQELLKDWECMTELLLEEPVQGEEAMSDRQESALIELMVCTIRQAAEAHPPVGRGTGKRVLTAKERKTQIDDRNKLTEHFIITLPMLLSKYSADAEKVANLLQIPQYFDLEIYSTGRMEKHLDALLKQIKFVVEKHVESDVLEACSKTYSILCSEEYTIQNRVDIARSQLIDEFVDRFNHSVEDLLQEGEEADDDDIYNVLSTLKRLTSFHNAHDLTKWDLFGNCYRLLKTGIEHGAMPEQIVVQALQCSHYSILWQLVKITDGSPSKEDLLVLRKTVKSFLAVCQQCLSNVNTPVKEQAFMLLCDLLMIFSHQLMTGGREGLQPLVFNPDTGLQSELLSFVMDHVFIDQDEENQSMEGDEEDEANKIEALHKRRNLLAAFSKLIIYDIVDMHAAADIFKHYMKYYNDYGDIIKETLSKTRQIDKIQCAKTLILSLQQLFNELVQEQGPNLDRTSAHVSGIKELARRFALTFGLDQIKTREAVATLHKDGIEFAFKYQNQKGQEYPPPNLAFLEVLSEFSSKLLRQDKKTVHSYLEKFLTEQMMERREDVWLPLISYRNSLVTGGEDDRMSVNSGSSSSKTSSVRSKKGRPPLHRKRVEDESLDNTWLNRTDTMIQTPGPLPTPQLTSTVLRENSRPMGEQIQEPESEHGSEPDFLHNPQMQISWLGQPKLEDLNRKDRTGMNYMKVRAGVRHAVRGLMEEDAEPIFEDVMMSSRSQLEDMNEEFEDTMVIDLPPSRNRRERAELRPDFFDSAAIIEDDSGFGMPMF
Turning to B2, the binding entry in experiment [2] was “binds”.
